This note sets out measurements from PubChem BioAssay AID1381 (University of Pittsburgh Molecular Library Screening Center, 2008).

A short description of this assay: inhibitors of GR-EGFP nuclear translocation, primary screen, dynein cargo transport inhibitor project, imaging, high-content, 3617.4 mouse cells (AID 1381). The settings on record: stimulated with dexamethasone, 1 µM.
[1] abbreviates: measured here: cell count per field, at 20 µM.
[2] abbreviates: measured here: cytoplasmic GR-EGFP intensity, at 20 µM, stronger effect = higher value.
Where [3] appears, read: measured here: nuclear GR-EGFP intensity, at 20 µM, stronger effect = lower value.

This is one part of the list. Some results for these compounds are left out of this collection, so the calls shown say nothing about other tests.

Compound `O=C(NCC1(N2CCCCC2)CCCCC1)c1cc([N+](=O)[O-])ccc1Cl` returned a z-score under setting [1] of 0.212, a z-score under setting [2] of -0.103 and a z-score under setting [3] of -0.496.
The matching figures for `CC(C)N1C(=O)CC2(CCN(CCOC(=O)C(O)(c3ccccc3)c3ccccc3)CC2)C1=O`: 0.375, -0.219 and -0.115.
For the compound `CCN(CC)CC(C)C(C)OC(=O)C(O)(c1ccccc1)c1ccccc1` (stereo not drawn), the z-score was 0.829 under setting [1], -0.176 under setting [2] and -0.114 under setting [3].
Taken in the same sequence, the figures for `Cc1ccccc1C(=O)NCC1(N2CCCCC2)CCCCC1` were -1.37, -0.254 and 0.13.
The matching figures for `CN(C)C1CCCC1OC(=O)C(O)(c1ccccc1)c1ccccc1` (stereo not drawn): -0.64, -0.168 and 0.228.
The matching figures for `C=CCN1CCN(CCOC(=O)C(O)(c2ccccc2)c2ccccc2)CC1`: -0.42, -0.164 and 0.526.
For `CCN1CCCC(OC(=O)C2(O)c3ccccc3C=Cc3ccccc32)C1` (stereo not drawn), the z-score by setting is: under setting [1], -0.541; under setting [2], -0.202; under setting [3], -0.111.
Consider `COc1cccc(C(=O)NCC2(N3CCCCC3)CCCCC2)c1`, for which the z-score runs as follows: under setting [1], -0.0786; under setting [2], -0.373; under setting [3], 0.112.
Compound `O=C(OC1CN2CCC1CC2)C(CO)(c1ccccc1)c1ccccc1` (stereo not drawn) displayed a z-score (measured here: cell count per field, at 50 µM) of -0.372; a z-score (measured here: cytoplasmic GR-EGFP intensity, at 50 µM, stronger effect = higher value) of -0.229; a z-score (measured here: nuclear GR-EGFP intensity, at 50 µM, stronger effect = lower value) of -0.783.
For the compound `COc1ccc(Br)c(C(=O)NCC2(N3CCCCC3)CCCCC2)c1`, the z-score under setting [1] amounted to 0.578, the z-score under setting [2] was -0.163 and the z-score under setting [3] was -0.449.
The matching figures for `CN(C)c1cccc(C(=O)NCC2(N(C)C)CCCCC2)c1`: 0.591, -0.402 and 0.0187.
